Laboratory results: PubChem BioAssay AID493014 (National Center for Advancing Translational Sciences (NCATS), 2011)
The list shows a part of the results. Shown are side measurements of this screen, not its main read-out; they come without a call. The list favours compounds with an active or inconclusive main result. Words in brackets tell the shape of the fitted curve; partial curves, single points and poor fits give uncertain potencies.

Experiment: qHTS Assay to Find Inhibitors of Chronic Active B-Cell Receptor Signaling
Conditions: ABC-DLBCL IkBa-CBG/CBR reporter, luminescence ratio (green luciferase fused to IkBa over red control in TMD8 lymphoma cells), 4 h
Procedure, shortened: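 Doxycycline induced both beetle luciferases in TMD8 lymphoma cells; IKK-driven degradation limits the IkappaBalpha-fused green signal, while red luminescence normalises for cell number and nonspecific effects. Compounds tested up to 46 uM, 4 hrs.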

[1] = measured here: CBR red luminescence, cell number
[2] = measured here: IkBa-CBG green luminescence

SMILES	AC50 [1]	AC50 [2]
N#CC1=C(N)Oc2n[nH]c(-c3cccs3)c2C1C1CCCCC1 (configuration not stated)	16.4 µM [falling, partial curve, poor fit]	–
Cc1ccc(C)c(NC(=S)NNC(=O)c2csc(C(C)C)c2)c1	29.1 µM [falling, single point]	–
CC(=O)C(CC(=O)N1CCCc2ccccc21)C(=O)Nc1ccc(F)cc1 (configuration not stated)	29.1 µM [falling, single point]	–
Cc1ccc(S(=O)(=O)c2c(N)n(C)c3nc4ccccc4nc23)cc1	13 µM [falling, partial curve]	7.31 µM [rising, partial curve, poor fit]
Cc1nc2scc(-c3ccc(C(C)C)cc3)c2c(=O)n1N	20 µM [rising, single point]	–
CCC(CC)C(=O)Nc1nc(-c2ccc3c(c2)CCN3C(=O)C2CC2)c(C)s1	13 µM [rising, single point]	–
Cc1cccc(C)c1-n1nnnc1C1(Nc2ccccc2)CCCCC1	0.92 µM [falling, full curve, poor fit]	–
CCC1CCc2c(sc(NC(=O)C3CC=CCC3C(=O)O)c2C#N)C1 (configuration not stated)	20.6 µM [falling, partial curve]	–
Oc1ccc(COC2CCCC2)c2cccnc12	–	3.26 µM [falling, full curve]
CCN(Cc1nc2cc(Cl)ccc2c(=O)[nH]1)C(=O)C1CC(=O)N(c2cccc3ccccc23)C1 (configuration not stated)	2.91 µM [falling, partial curve, poor fit]	–
CCC(C)(C)n1nnnc1C(c1ccc(O)c(OC)c1)N1CCN(c2nc3ccccc3s2)CC1 (configuration not stated)	20 µM [falling, single point]	–
COc1ccc(CCN(C)C(=O)CCCN2C(=O)c3cccc4cccc(c34)C2=O)cc1OC	4.47 µM [rising, full curve, poor fit]	–
NC(=O)c1ccccc1Nc1nc2nc3ccccc3c(=O)n2cc1Br	7.94 µM [falling, partial curve, poor fit]	–
NNC(=O)CCN1CCN(C(c2ccccc2)c2ccccc2)CC1	5.62 µM [rising, single point]	–
c1ccc(COc2ccc(Nc3ncnc4nc[nH]c34)cc2)cc1	5.17 µM [rising, full curve, poor fit]	–
CCCn1c(=O)c2ccccc2n2c(SCC(=O)c3ccccc3)nnc12	20.6 µM [rising, partial curve, poor fit]	–
CC(=O)Nc1c(O)c2ccccc2[nH]c1=O	3.16 µM [rising, partial curve, poor fit]	–
O=C(Cn1c(=O)sc2ccccc21)NCc1ccco1	2.82 µM [rising, partial curve]	–
Cc1cnn(-c2nc(-c3cccs3)cc(C(F)(F)F)n2)c1	0.366 µM [falling, partial curve, poor fit]	–
COc1ccc(SCC(=O)c2cc(C)c(OC(=S)N(C)C)c(C)c2)cc1	32.6 µM [falling, single point]	–
Cc1onc(-c2ccccc2)c1C(=O)NCCc1ccc(Cl)cc1	0.708 µM [rising, full curve, poor fit]	–
NC(=O)C(=O)N/N=C/c1c2ccccc2cc2ccccc12	15.8 µM [falling, partial curve, poor fit]	–

An excerpt from above in order of SMILES length, ascending:
SMILES	AC50 [1]	AC50 [2]
O=C(Cn1c(=O)sc2ccccc21)NCc1ccco1	2.82 µM [rising, partial curve]	–
Cc1nc2scc(-c3ccc(C(C)C)cc3)c2c(=O)n1N	20 µM [rising, single point]	–
Cc1cnn(-c2nc(-c3cccs3)cc(C(F)(F)F)n2)c1	0.366 µM [falling, partial curve, poor fit]	–
CCC(C)(C)n1nnnc1C(c1ccc(O)c(OC)c1)N1CCN(c2nc3ccccc3s2)CC1 (configuration not stated)	20 µM [falling, single point]	–

(more compounds)

SMILES	AC50 [1]	AC50 [2]
CCCC(=O)Nc1ccc(C(=O)N/N=C/c2cccnc2)cc1	29.1 µM [rising, single point]	32.6 µM [falling, partial curve, poor fit]
COc1ccc(CNc2nc3nc(C)c(Cl)c(=O)n3[nH]2)cc1OC	13 µM [falling, partial curve, poor fit]	–
Cc1sc2nc(CN(C(=O)NC3CCCCC3)C3CCCC3)[nH]c(=O)c2c1C	23.1 µM [rising, single point]	–
Cc1cn(C)c(CC(=O)N2CCN(c3cccc(C(F)(F)F)c3)CC2)c1C(=O)O	35.5 µM [falling, single point]	–
CCCCn1c(SCc2ccccn2)nc2c1c(=O)n(C)c(=O)n2C	–	1.16 µM [rising, full curve, poor fit]
CCOc1ccc2c(c1)c(N=Nc1cccc(C(=O)O)c1)c(O)n2C	0.092 µM [falling, full curve]	–
Cc1cc(/C=C(\C#N)C(=O)NC2CCCCCC2)c(C)n1C	0.058 µM [falling, full curve]	–
O=C(Nc1ccccc1)c1cccc(C(F)(F)F)c1	0.731 µM [rising, full curve, poor fit]	–
CCCCN(C(=O)C1CCN(C(=O)c2ccccc2C)CC1)c1c(N)n(CCC)c(=O)[nH]c1=O	23.1 µM [falling, single point]	–
COc1ccc(Nc2c3c(nc4ccccc24)CCC3)c(OC)c1	2 µM [falling, partial curve]	–
O=C(Cc1c[nH]c2ccccc12)NNC(=O)c1ccccc1	29.1 µM [rising, single point]	–
O=C(O)Cn1c(SCc2ccccc2)nc2ccccc21	29.1 µM [falling, single point]	–
COc1ccc(/C=N/O)cc1COc1ccc(NC(C)=O)cc1	14.6 µM [rising, partial curve, poor fit]	–
NC(=O)CCCc1nc(-c2ccccc2Cl)no1	7.94 µM [rising, partial curve, poor fit]	–
COc1ccc(N=Cc2cc3c(cc2O)OC(N)=C(C#N)C3c2ccccc2)cc1 (configuration not stated)	7.31 µM [falling, partial curve]	25.9 µM [rising, partial curve, poor fit]
CC(=O)c1c(Nc2ccccc2)sc(C(=O)c2ccccc2)c1C	6.51 µM [rising, single point]	–
Cc1ccc2[nH]c(C(=O)N/N=C/c3ccccc3O)c(C)c2c1	0.708 µM [falling, full curve, poor fit]	–
Cc1ccc(C(C)C)c(OC(=O)/C=C/c2ccccc2)c1	23.1 µM [rising, partial curve]	–
CN(CC(=O)Nc1ccc(Cl)c(C(F)(F)F)c1)C(=O)c1cn2ccccc2n1	0.731 µM [rising, full curve]	–
COc1cc(/C=N/Nc2nc3ccccc3[nH]2)cc(Br)c1OCC(=O)N(C)C	20 µM [falling, partial curve, poor fit]	–
COc1cccc(CN(C(=O)COc2ccccc2[N+](=O)[O-])C2CCS(=O)(=O)C2)c1 (configuration not stated)	15.8 µM [falling, partial curve, poor fit]	–
CN=c1scc(C)n1/N=C/c1ccc(O)c(O)c1O	29.1 µM [rising, single point]	–

SMILES	AC50 [1]	AC50 [2]
O=C(Nc1ccc(Br)cc1)N1CCc2ccccc2C1	22.4 µM [falling, single point]	–
COc1ccccc1C(=O)Nc1cccnc1	20 µM [falling, partial curve, poor fit]	–
COc1ccc(/C=N/OCc2ccc(Br)cc2)c(OC)c1	4.47 µM [rising, full curve, poor fit]	–
C=CCn1c(SCC(=O)N2CCOCC2)nnc1C(C)NC(=O)c1ccccc1 (configuration not stated)	14.1 µM [rising, partial curve, poor fit]	–
Cc1nc2ccccc2cc1C(=O)NCc1ccc(F)cc1	10 µM [rising, partial curve, poor fit]	–
Cc1ccccc1C(=O)Oc1ccc(-c2csnn2)cc1	0.794 µM [rising, full curve, poor fit]	–
CC1Cc2nc(SCC(=O)Nc3ccc(F)cc3F)n(C)c(=O)c2S1 (configuration not stated)	22.4 µM [falling, partial curve, poor fit]	–
Cc1ccc(S(=O)(=O)Nc2ccncc2)c(C)c1N(C)S(=O)(=O)c1ccc(Cl)cc1	29.1 µM [rising, single point]	–
CCc1ccc(OCC(=O)Nc2nnc(-c3ccco3)s2)cc1	10 µM [rising, partial curve, poor fit]	–
CN(C)c1ccc(N=Nc2cccc(F)c2)cc1	0.224 µM [rising, full curve, poor fit]	–
O=C(Nc1ccc(Cn2cccn2)cc1)c1ccc(COc2ccccc2Br)cc1	20 µM [falling, single point]	–
COc1ccc(Nc2nc(-c3ccccc3)nc3ccccc23)c(OC)c1	3.16 µM [rising, full curve, poor fit]	–
CC(C)c1ccc(C(O)Cc2nc3ccccc3n2C)cc1 (configuration not stated)	10 µM [rising, partial curve]	–
C=CCn1c(CNc2ccc(C)cc2)nnc1SCC(=O)N/N=C/c1ccc(O)cc1O	22.4 µM [falling, single point]	–
Cc1ccc(-n2c(=S)[nH]c3c(oc4ccccc43)c2=O)cc1	23.1 µM [falling, single point]	–
CCOC(=O)C(C(=O)OCC)C1N=C(N)N=C2Oc3ccccc3N21 (configuration not stated)	1.03 µM [falling, full curve, poor fit]	–
O=C(Nc1ccc2oc(=O)ccc2c1)c1cc2ccccc2o1	7.31 µM [falling, partial curve, poor fit]	–
CCOC(=O)c1c(C)[nH]c(C)c1C(=O)CN1C(=O)NC2(CCCCCC2)C1=O	25.9 µM [falling, partial curve, poor fit]	–
Cc1ccc(Cn2nnc3c(=O)[nH]c(C4CCN(C(=O)c5cccs5)CC4)nc32)cc1	3.66 µM [rising, single point]	–
Cc1ccc2c(CN(C)Cc3cccc(F)c3)cc(=O)oc2c1C	0.562 µM [rising, partial curve]	–
